In article PMC12455585:
Construct, isoform or probe ends are uncertain for at least one entry. For part of these data: A weaker result is weaker than the reference pair of the same experiment.

Columns and labels:
Assay in all cases: fluorescence anisotropy
[1] = system: OBMg H120A (Moorella glycerini); details: 50 mM NaCl, almost no effect vs WT; 50 mM HEPES-NaOH pH 7.2, 50 mM NaCl (50-250 mM in salt series), 20 or 50 nM DNA, 60 min, 25 C; recombinant protein; protein details: His6-SUMO removed; label: 5' FAM on 5' phosphate of strand 1
[2] = system: OBMg K121A (Moorella glycerini); details: 50 mM NaCl, almost no effect vs WT; 50 mM HEPES-NaOH pH 7.2, 50 mM NaCl (50-250 mM in salt series), 20 or 50 nM DNA, 60 min, 25 C; recombinant protein; protein details: His6-SUMO removed; label: 5' FAM on 5' phosphate of strand 1
[3] = system: OBMg N103A (Moorella glycerini); details: 50 mM NaCl, almost no effect vs WT; 50 mM HEPES-NaOH pH 7.2, 50 mM NaCl (50-250 mM in salt series), 20 or 50 nM DNA, 60 min, 25 C; recombinant protein; protein details: His6-SUMO removed; label: 5' FAM on 5' phosphate of strand 1
[4] = system: OBMg group 1 triple mutant (Moorella glycerini); details: 50 mM NaCl; 50 mM HEPES-NaOH pH 7.2, 50 mM NaCl (50-250 mM in salt series), 20 or 50 nM DNA, 60 min, 25 C; recombinant protein; protein details: His6-SUMO removed; label: 5' FAM on 5' phosphate of strand 1
[5] = system: OBMg group 2 triple mutant (Moorella glycerini); details: 50 mM NaCl; 50 mM HEPES-NaOH pH 7.2, 50 mM NaCl (50-250 mM in salt series), 20 or 50 nM DNA, 60 min, 25 C; recombinant protein; protein details: His6-SUMO removed; label: 5' FAM on 5' phosphate of strand 1
[6] = system: OBMg group 3 triple mutant (Moorella glycerini); details: 50 mM NaCl; 50 mM HEPES-NaOH pH 7.2, 50 mM NaCl (50-250 mM in salt series), 20 or 50 nM DNA, 60 min, 25 C; recombinant protein; protein details: His6-SUMO removed; label: 5' FAM on 5' phosphate of strand 1

Sequence: GTTCGCAACGAA (double strand) [12 bp dsDNA]
- binding result [1]: binds
- binding result [2]: binds
- binding result [3]: binds
- binding result [4]: binds more weakly
- binding result [5]: binds more weakly
- binding result [6]: binds more weakly
